Record: PubChem BioAssay AID1259281 (Sanger Institute, 2017)

Aim: 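Screen kinases and frequently colorectal-mutated genes for lethal knock-downs and drug partners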 (primary screen)
Cell system: human COLO678 colorectal cancer cell line
Knock-down reagent: siRNA pool against human genes
Challenge: anchor drugs at fixed doses: BYL719 1 µM, cetuximab 5 µg/ml or trametinib 10 nM; DMSO vehicle for the siRNA-alone arm
Measurement: 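Cell viability compared with non-targeting pool wells, averaged over replicates; knock-down-alone effect also as robust z-score; synergy scores set knock-down plus drug against expected joint effect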
Reading the numbers: robust z-score, siRNA alone: higher = more viable cells; strongly negative means essential; viability, siRNA alone: higher = more surviving cells; synergy score with BYL719 and synergy score with trametinib and synergy score with cetuximab: higher = stronger synergistic killing with drug
Call rule: 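Called essential (knock-down alone) if knock-down by itself drops cell number to a robust z-score under -3; all others no change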
Calls: active = essential (knock-down alone); inactive = no change
Shown is a random part of 794 deposited reagents. 22 of all reagents (2.8%) were called active. 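Calls rest on knock-down alone only; drug synergy scores play no part in them.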 A number with no mark means an inactive call. The numbers tell different reagents against one gene apart. No viability above 1 is reported: the scale is capped. Not stated in the record: the amount of reagent, the time to read-out.

| gene | reagent | robust z-score, siRNA alone | viability, siRNA alone (fraction of control) | synergy score with BYL719 | synergy score with trametinib | synergy score with cetuximab |
| --- | --- | --- | --- | --- | --- | --- |
| PDPK1 | 1 | 0.473 | 1 | -0.0919 | 0.0366 | 0.00696 |
| EPHB6 | 1 | 0.473 | 1 | 0.0343 | -0.0441 | 0.116 |
| PIK3R4 | 1 | 0.473 | 1 | 0.119 | -0.0235 | 0.135 |
| SOS2 | 1 | 0.473 | 1 | 0.0316 | -0.122 | 0.0147 |
| CDK14 | 1 | 0.473 | 1 | 0.0189 | 0.00396 | -0.06 |
| FGFR4 | 1 | 0.473 | 1 | -0.0884 | -0.062 | -0.0602 |
| PDK2 | 1 | 0.473 | 1 | 0.0297 | 0.0925 | 0.0019 |
| ILK | 1 | 0.473 | 1 | 0.0185 | -0.04 | -0.0242 |
| ILK | 2 | -1.25 | 0.945 | 0.00479 | 0.115 | -0.0675 |
| NEK3 | 1 | 0.473 | 1 | 0.0255 | 0.0929 | -0.0281 |
| PRP4K | 1 | 0.0704 | 0.987 | 0.0402 | 0.0491 | 0.0957 |
| FLT4 | 1 | 0.473 | 1 | -0.0919 | -0.0422 | -0.0681 |
| AKT3 | 1 | 0.473 | 1 | -0.0521 | 0.0441 | 0.00902 |
| WHR1 | 1 | 0.473 | 1 | -0.0689 | -0.0105 | -0.0681 |
| COQ8B | 1 | 0.473 | 1 | -0.0398 | 0.0989 | 0.0504 |
| IRAK2 | 1 | 0.0862 | 0.988 | 0.0136 | 0.0213 | 0.0384 |
| CNOT1 | 1 | -3.69 (active) | 0.868 | -0.0588 | -0.0735 | 0.0145 |
| SMAD4 | 1 | 0.473 | 1 | 0.0921 | 0.0329 | 0.0489 |
| DDR2 | 1 | 0.473 | 1 | -0.0656 | 0.00915 | -0.0681 |
| DLG1 | 1 | 0.473 | 1 | -0.0919 | 0.0329 | 0.0265 |
| DUSP21 | 1 | 0.473 | 1 | 0.0758 | -0.000437 | 0.0334 |
| CDK7 | 1 | 0.473 | 1 | -0.0148 | 0.0468 | -0.0242 |
| PIP4K2B | 1 | 0.455 | 0.999 | 0.0209 | 0.00735 | 0.0514 |
| SGK2 | 1 | -0.326 | 0.975 | -0.056 | -0.0556 | -0.0581 |
| ALPK2 | 1 | -1.78 | 0.929 | 0.0033 | -0.00602 | -0.0771 |
| CHUK | 1 | 0.473 | 1 | -0.0919 | -0.0922 | -0.0681 |
| MAP3K11 | 1 | -0.113 | 0.981 | 0.0114 | -0.0188 | 0.0239 |
| PRKAA2 | 1 | 0.473 | 1 | -0.00243 | 0.0756 | -0.027 |
| ZC3H11A | 1 | 0.473 | 1 | 0.0713 | -0.0326 | -0.0681 |
| SMAD2 | 1 | 0.473 | 1 | -0.0575 | 0.0384 | 0.041 |
| CRIM1 | 1 | -0.146 | 0.98 | 0.0866 | -0.0616 | -0.0758 |
| XYLB | 1 | 0.473 | 1 | 0.0272 | -0.00817 | 0.0523 |
| CKB | 1 | 0.473 | 1 | -0.0769 | 0.0482 | 0.0627 |
| BMPR1B | 1 | 0.473 | 1 | -0.0919 | 0.0482 | -0.0142 |
| MAP3K12 | 1 | 0.473 | 1 | 0.0154 | -0.0352 | -0.021 |
| PDK4 | 1 | -1.46 | 0.938 | 0.0584 | -0.0172 | -0.0133 |
| LATS1 | 1 | -3.62 (active) | 0.87 | -0.0568 | 0.00372 | -0.0206 |
| MPP3 | 1 | 0.473 | 1 | 0.0794 | 0.0955 | 0.0379 |
| STK10 | 1 | -2.08 | 0.919 | -0.0528 | -0.0204 | -0.04 |
| PBK | 1 | 0.473 | 1 | 0.0498 | 0.116 | 0.114 |
| CASK | 1 | -0.358 | 0.974 | -0.116 | 0.0687 | -0.0458 |
| CPNE3 | 1 | 0.473 | 1 | 0.127 | -0.0304 | 0.0224 |
| DCLK1 | 1 | -0.424 | 0.971 | 0.0445 | 0.0824 | 0.0507 |
| PI4KB | 1 | 0.473 | 1 | -0.00579 | 0.0355 | 0.0449 |
| BMPR1A | 1 | 0.473 | 1 | 0.00939 | -0.000935 | 0.0688 |
| DGKI | 1 | 0.473 | 1 | -0.0919 | -0.0274 | -0.0594 |
| PTK7 | 1 | 0.473 | 1 | -0.0788 | 0.0762 | 0.0203 |
| LIMK2 | 1 | 0.473 | 1 | -0.0919 | 0.0378 | -0.017 |
| TEX14 | 1 | 0.473 | 1 | -0.0697 | 0.0846 | -0.0474 |
| DCLK2 | 1 | -0.465 | 0.97 | 0.103 | 0.0487 | 0.029 |
